Library screen at single concentrations

Chains of the proteins cited; added tags and fusions are not shown.
UniProt P9WNZ1, whole entry: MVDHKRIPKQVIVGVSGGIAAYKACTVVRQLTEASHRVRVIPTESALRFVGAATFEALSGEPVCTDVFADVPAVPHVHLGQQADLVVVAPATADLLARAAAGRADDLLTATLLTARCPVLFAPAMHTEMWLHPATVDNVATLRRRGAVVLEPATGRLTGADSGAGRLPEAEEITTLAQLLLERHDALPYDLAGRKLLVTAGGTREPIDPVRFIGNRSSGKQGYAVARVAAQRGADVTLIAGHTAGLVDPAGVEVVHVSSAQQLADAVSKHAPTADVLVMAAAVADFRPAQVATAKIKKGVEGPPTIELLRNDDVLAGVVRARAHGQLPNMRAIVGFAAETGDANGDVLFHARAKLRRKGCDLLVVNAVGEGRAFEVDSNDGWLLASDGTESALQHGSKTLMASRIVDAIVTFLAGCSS

CoaBC: 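Coenzyme A biosynthesis protein CoaBC, Mycobacterium tuberculosis (UniProt P9WNZ1). Enzyme assay of CoaBC with a phosphate dye (Biomol Green) read at 650 nm. Tested at 30 µM. Direction is inferred from only a few compounds that gave an IC50; most scored high, so higher reads as stronger inhibition. Most strong results did not repeat in a second test. Of about 67,000 compounds tested this way, about 40 (0.06%) reached 50% or more in at least one test.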
Leishmania in macrophages: 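Cell assay of Leishmania donovani living inside macrophages; the read-out is not stated. Tested at 30 µM. The record gives no direction; compounds that gave an IC50 in retests scored well above the rest, so higher reads as stronger inhibition. Of about 69,000 compounds tested this way, about 1,000 (1.5%) reached 50% or more in at least one test.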

Each number is a percent effect as filed.
The controls that fix the scale are not given in the record; negative values are as filed.
This is an unselected part of the compounds tested.
Two or more numbers in one place are separate tests of the same structure; such repeats can differ widely.
A dash means the value is not listed here; it may have been measured.

SMILES	CoaBC	Leishmania in macrophages
CN(C)CCOCC1CN(CC2CCOCC2)Cc2nnn(C)c21 (stereo not shown)	-3.965	-
O=C(c1ccccc1)N1CC[C@H]2C[C@H](c3nnc(C4CC4)o3)O[C@@H]2C1	4.198	-
CN(Cc1ccco1)[C@@H]1CN(Cc2ccncc2)C[C@@H]2CCCO[C@@H]21	1.261	-
CN(CCc1ccc2c(c1)CCO2)C1CCS(=O)(=O)CC1	-1.446	14.77
Cc1ncc(CN2CCc3c(nc(-c4ccccn4)[nH]c3=O)C2)n1C	3.676	4.22
CC(C)OC(=O)N1CCCC(c2nccn2Cc2ccncc2)C1 (stereo not shown)	1.333	5.644
CCc1nc(CNc2ccc(F)cc2I)no1	3.502	21.88
CN(C)c1ccc(CNC2=NCCCN2)cc1	-16.3	-
COCc1nn(C(C)C)c2c1CCN(Cc1ccc(C)o1)C2.O=C(O)C(F)(F)F	-	38.97
COCCN1CCN(c2nc(C3CCCC3)nc3c2cnn3C)CC1	7.015	-3.597
NS(=O)(=O)c1cccnc1NCc1ccco1	2.237	37.64
CN(Cc1cccc(F)c1)C(=O)CN1CCOC(Cn2cncn2)C1 (stereo not shown)	1.312	11.48
Cc1cc(C(=O)NCCn2nc3ccccn3c2=O)[nH]n1	1.554	14.08
O=C(NCCNC1CCN(c2nccs2)CC1)c1cccs1	-2.532	12.38
CN1C(=N)NC(=O)/C1=C\c1ccc(-c2ccc(F)cc2)o1	-3.797	1.273 and 35.49
O=C(O)C(F)(F)F.O=C(O)C(F)(F)F.O=C(O)C(F)(F)F.c1ccc(CN2CCc3c(COCC4CC4)cncc3C2)nc1	-	2.596
O=C1COc2c(cccc2C(=O)N2CCCC(n3cccn3)C2)N1 (stereo not shown)	-4.075	-19.69
CC(c1cccc(-c2ncccc2C#N)c1)N(C)C (stereo not shown)	2.169	54.7
CN(C)S(=O)(=O)N1C[C@@H]2CC[C@H](C1)N(Cc1cccc(C#N)c1)C2	2.061	-
N#Cc1ccc(N2CCCN(CC(=O)N3CCNC(=O)C3)CC2)cc1	1.21	12.75
NC(=O)Cn1nc(-c2ccccc2F)ccc1=O	2.179	22.55
COCC(=O)N1CCC2(CC1)COC(COCc1ccccn1)C2.O=C(O)C(F)(F)F (stereo not shown)	-	-36.54
Cc1cc(C)n(C2CN(CC(=O)N3CCOCC3)C2)n1	-6.527	-14.17
Cc1nn(C)cc1CN(C)C(=O)c1cccnc1	0.1148	21.73
CCN(CC)C(=O)c1nnsc1-c1ccc(C)cc1	-15.1	4.27
O=C(O)C(F)(F)F.O=C(c1cscn1)N1CC[C@]2(C[C@@H](OCCN3CCCC3)CO2)C1	-	25.89
Cc1cccc(NC(=O)C2CCc3ccccc3N2)c1.Cl (stereo not shown)	-	-36.18
Cc1cc(C)c2c(c1)C(NCc1c(C)nn(C)c1N(C)C)CCO2 (stereo not shown)	1.141	7.676
CN(c1ncnc2ccccc12)C1CCCN(c2cccnn2)C1 (stereo not shown)	8.068	13.88
Cc1cc2c(=O)n3c(nc2s1)CCN(Cc1cncn1C)CC3.Cl	-	3.845
COc1cccc(CC(=O)N2CC[C@@H]3CN(C)S(=O)(=O)[C@@H]3CC2)c1	0.1212	-
Cn1cc(CN2CCC(c3cc(CCO)[nH]n3)C2)cn1 (stereo not shown)	2.392	26.16
CCNCc1ccc(OCc2ccc3c(c2)OCCO3)cc1	-0.8861	-
O[C@H]1CCN(CCCOc2ccccc2F)C[C@@]12CCCO2	3.453	19.49
COc1ccc(CNC(=O)C2=NN(c3ccc(C)cc3)C(=O)CN2)cc1	9.871	51.58
O=S(=O)(C1CC1)N1CCO[C@H]2[C@@H](Oc3ncccc3F)CC[C@@H]21	-5.665	-
CC(=O)Nc1nc(C(=O)N2CCCC2c2ccccc2C)cs1 (stereo not shown)	0	-18.83
Cc1noc(C)c1CN1C[C@@H]2CC[C@H](C1)N(Cc1cc(F)cc(F)c1)C2	-13.64	-
CC(O)Cc1cn(CC2CCN(c3nccc4occc34)CC2)nn1 (stereo not shown)	6.957	7.421
O=C(CNC(=O)N1CCc2c([nH]c3ccc(Cl)cc23)C1)NCCCO	2.02	10.74
CC(O)(CN1CCC(O)CC1)c1cccc(C(F)(F)F)c1 (stereo not shown)	0.7168	27.55
Cc1ccc(C(CNC(=O)NCc2ccccn2)N2CCOCC2)o1 (stereo not shown)	2.813	10.59
COc1ccc(CN2CCOC[C@H](OCCC(C)C)C2)cc1	-1.768	22.77
Cc1nc(NCC2CC2)nc2c1COCC21CCN(C)C1 (stereo not shown)	19.95	40.72
Cc1ccccc1-c1csc2c(=O)[nH]c(N3CCCC(C(=O)O)C3)nc12 (stereo not shown)	-3.594	11.92 and 0.2075
Cc1cccc(CN2C(=O)C[C@H]3[C@@H]2CCN3CC2CC2)n1	-2.177	-
O=C(NCc1ccc(-n2cncn2)nc1)N(CC1CCOC1)C1CC1 (stereo not shown)	14.09	21.89
Cc1ccccc1OC1CCN(C(=O)c2c[nH]c(=O)[nH]c2=O)CC1	-2.479	-7.071
COc1ccccc1CCNC(=O)CNCC1CN(C)CCO1 (stereo not shown)	-2.93	22.54
Cc1cc2[nH]c(=O)oc2cc1S(=O)(=O)N1CCC(N2CCCC2=O)CC1	2.99	26.13
Cn1ccc(CN2CCC(CC(=O)NC3CCCC3)CC2)cc1=O	3.684	6.849
O=c1[nH]c(-c2ccccn2)nc2c1CCN(S(=O)(=O)N1CCCC1)C2	0.7856	0.3504
CC(=O)NCCn1ccc(-c2ccccn2)n1	-2.503	10.79
Cl.Cl.OC(CN1CCN(Cc2ccc(F)c(F)c2)CC1)C1CC1 (stereo not shown)	-	21.91
CC(NC(=O)N1CCC2(C1)OCCO2)c1cccc(Cl)c1 (stereo not shown)	-	-7.37
Cn1cccc1C(=O)NC[C@H]1C[C@@H]2CN(C(=O)c3ccco3)C[C@@H]2O1	-4.208	-
OCC(O)CSCc1cn(-c2ccc(F)c(Cl)c2)nn1 (stereo not shown)	-6.855	22.69
Cc1nc(C)n(CC2CN(CCCOc3ccccc3)CCO2)n1 (stereo not shown)	7.826	-0.2244
COC(=O)c1cccn1C1CCN(S(=O)(=O)c2ccccc2)CC1	-60.59	18.19
C[C@@H]1CN(S(=O)(=O)N2CCCC2)CC[C@@]1(O)C1CCOCC1	6.012	-18.29
CCS(=O)(=O)NCc1cc(Br)c(OC)c(OC)c1	0.3745	-11.85
Cc1cc(-c2cnc(N3CCC(O)CC3)nc2C(C)C)on1	6.053	15.53
CCO[C@@H]1CO[C@@]2(CCCN(Cc3scnc3C)C2)C1.O=C(O)C(F)(F)F	-	22.91
CCc1ccc(OCC(O)CN2CCN(S(C)(=O)=O)CC2)cc1 (stereo not shown)	6.923	-22.67
CCn1c(Cn2cncn2)nnc1C1CCN(CCN)CC1	1.527	6.652 and 3.108
CN(CCCn1cnc2c(N)ncnc21)Cc1ccccc1	3.471	4.026
CC(=O)N1CCCCCC1C1CCN(c2ncccc2C#N)CC1 (stereo not shown)	-1.141	14.76
Cc1cc(N(C)Cc2cc(C(C)(C)C)n[nH]2)nc(-c2cccnc2)n1	0.6046	-1.213
COc1ccc(C[C@H]2CN(C(=O)CN(C)C)CC[C@H]2OC)cc1	6.288	-
c1cnc(NCC2Cn3nnc(-c4ccoc4)c3CO2)nc1 (stereo not shown)	1.112	6.898
O=C(Cn1cccnc1=O)NCc1cccnc1OCC(F)(F)F	0	3.085
Cc1nn(C)c(C)c1C1CCCN1CC(=O)NCc1ccccn1 (stereo not shown)	4.348	-15.26
[H][C@]12CCN(C(=O)c3cc(C)oc3C)C[C@@]1([H])OCCN(S(C)(=O)=O)C2	-	-19.6
Cc1nc(CN2CCCC3(CCN(c4cnn(C)c4)C3=O)C2)cs1 (stereo not shown)	-2.096	-
Cc1nc(C2CCCN2C(=O)c2cc3c(s2)CCCC3)no1 (stereo not shown)	0.5319	31.25
CCN(CC1CCOC1)C(=O)c1nc(-c2ccco2)sc1C (stereo not shown)	6.818	27.99
CC(C)C(NC(N)=O)C(=O)NCc1ccc(N2CCCC2)nc1 (stereo not shown)	4.307	21.94
Cc1nsc(NC2CCOC3(CCCCC3)C2)n1 (stereo not shown)	7.991	29.99
Cc1nnc(C(C)N2CCCN(Cc3noc(C4CC4)n3)CC2)o1 (stereo not shown)	1.217	23.36
Cc1noc(C)c1-c1cccc(CC2CCN(C(=O)c3cscn3)C2)n1 (stereo not shown)	-0.4843	-17.6 and 4.974
O=C(O)CCCC(=O)N1CCC(c2noc3cc(F)ccc23)CC1	1.453	1.096
[H][C@@]12COC[C@@H](CC(=O)N3CCCC3)[C@]1([H])CN(Cc1ccncc1)C2	-	12.12
CCO[C@@H]1CC[C@H]2[C@H]1OCCN2CC1CCOCC1	3.713	-
O=C(CSc1nnc(N2CCCC2)s1)NC(=O)Nc1ccccc1	4.474	32.13

Measurements from “University of Dundee, Small-Polar-MMV Screening Library” (2021), ChEMBL document CHEMBL3988442.